From PubChem BioAssay AID1259354 (Paczesny and Yang Labs, IUPUI and University of Michigan, 2018)
The whole screen tested about 78,000 compounds, of which about 1,800 (2.3%) were called active. Inconclusive results, whose numbers are uncertain, are shown with a selection of clear calls. No stated cut-off is given here; in the data, active means inhibition above about 30%; inconclusive means mostly about 10% to 28%; inactive means weaker than that.

Sequences of proteins named here, by UniProt entry; tags and fusion partners are left off. A change or cut given only in a name is not applied to a line headed by its entry.
UniProt Q01638: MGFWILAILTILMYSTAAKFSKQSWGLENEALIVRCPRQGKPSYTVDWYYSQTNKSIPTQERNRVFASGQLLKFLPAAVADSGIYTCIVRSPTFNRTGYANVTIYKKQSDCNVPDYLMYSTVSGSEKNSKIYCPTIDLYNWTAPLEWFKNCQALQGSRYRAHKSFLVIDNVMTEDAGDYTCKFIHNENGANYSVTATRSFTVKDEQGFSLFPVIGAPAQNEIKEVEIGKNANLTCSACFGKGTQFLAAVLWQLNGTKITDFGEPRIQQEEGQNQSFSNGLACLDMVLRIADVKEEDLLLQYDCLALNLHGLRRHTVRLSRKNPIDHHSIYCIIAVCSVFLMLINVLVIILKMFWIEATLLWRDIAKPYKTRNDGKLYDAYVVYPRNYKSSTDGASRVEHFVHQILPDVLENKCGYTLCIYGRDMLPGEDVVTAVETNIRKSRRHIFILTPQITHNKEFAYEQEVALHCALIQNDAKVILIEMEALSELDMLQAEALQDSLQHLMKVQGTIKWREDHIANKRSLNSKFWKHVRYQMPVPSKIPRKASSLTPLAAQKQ

These molecules were tested against Interleukin-1 receptor-like 1 (Homo sapiens) (UniProt Q01638) (assay: blocks human ST2 binding to IL-33, primary screen, biochemical, AlphaLISA (AID 1259354)). Details: AlphaLISA ST2-Fc/biotin-IL-33 interaction, 1 h; at 17 µM, active compounds read high.

Compound	inhibition
Cc1ccccc1Cc1c(C)nc2nc(SCC(=O)NCc3cccs3)nn2c1C	inactive
CC(C)NC(=O)N1CCC[C@@H](O)[C@H](NC(=O)c2ccc(OCCN3CCOCC3)cc2)C1	inconclusive: 12%
CC1=NN(c2ccc(Cl)c(Cl)c2)C(=O)/C1=C/c1ccc(Br)cc1	inconclusive: 13%
Cc1nn(C(=O)COc2ccccc2[N+](=O)[O-])c(C)c1Sc1ccc([N+](=O)[O-])cc1	inconclusive: 11%
CN(C)c1ccc(/C=C2\N=C(c3ccc(Br)o3)OC2=O)cc1	inconclusive: 11%
O=C1CSC(c2ccc(Cl)cc2)N1c1ccc(Br)cc1 (centres undefined)	inactive
CNC(=O)C1CCC(Cn2c(=O)c3sccc3n(CC(=O)Nc3cc(F)ccc3F)c2=O)CC1 (centres undefined)	inconclusive: 15%
CCCNc1ccccc1C(=O)N1CCC(N2CCCC2=O)CC1	inconclusive: 13%
O=S(=O)(NCc1ccccc1)N1CCC(C(O)Cc2ccccc2)CC1 (centres undefined)	inconclusive: 10%
C=CCNC(=O)N[C@H]1[C@H](O)[C@@H](N2CCCCC2)[C@@H]2OC[C@H]1O2	inconclusive: 11%
CN(C)c1ccc(C2C(C#N)=C(N)OC3=C2C(=O)CC(C)(C)C3)cc1 (centres undefined)	inconclusive: 20%
O=C(Nc1ccccc1Cl)C(=O)N1CCC2(CC1)C(=O)Nc1ccccc12	inconclusive: 18%
CCC/C=C/c1ccc(-c2nc(C)no2)cn1	inactive
COc1ccc(OC)c(NC(=O)CNC(=O)Cn2cnc3sc(C)c(C)c3c2=O)c1	inconclusive: 20%
Brc1ccc(CNc2ccc3c(c2)ncn3-c2ccccc2)cc1	inconclusive: 17%
CCOC(=O)c1c(NC(C)=O)sc2c1CC(C)(C)OC2	inconclusive: 10%
CC(=O)c1cccc(OCc2cc(C(=O)N3CC=CC3CO)n[nH]2)c1 (centres undefined)	inconclusive: 15%
CCN(CC1CCCO1)C(=O)c1ccc2ncsc2c1 (centres undefined)	inconclusive: 15%
Cc1nn(C)c(Cl)c1-c1nc2c([nH]1)c(C)nn2Cc1ccccc1Cl	inactive
CCN(CCCNS(=O)(=O)c1cccc2cccnc12)c1ccccc1	inconclusive: 16%

As a short view, 2 of the compounds above.
Compound	inhibition
CCN(CC1CCCO1)C(=O)c1ccc2ncsc2c1 (centres undefined)	inconclusive: 15%
Cc1nn(C)c(Cl)c1-c1nc2c([nH]1)c(C)nn2Cc1ccccc1Cl	inactive

Remaining list, next part:

Compound	inhibition
COC(=O)c1c[nH]n2c(=O)c(Cc3ccc(C)cc3)c(C)nc12	inactive
CCOC(=O)c1cccnc1-c1ccc(C)c2ncccc12	inactive
O=c1ccc(-c2ccccc2)nn1CCn1ccnc1-c1ccncc1	inconclusive: 13%
Cc1ccc(Cl)cc1N=Cc1nc(-c2ccc(Br)cc2)oc1O	inconclusive: 22%
O=C(Cn1nc(-c2ccccc2)c2ccccc2c1=O)N1CC[C@H](O)[C@@H](O)C1	inconclusive: 21%
Cc1cc(C)n(-c2cccc(C(=O)N3CCN4CCN(C)CC4C3)c2)n1 (centres undefined)	inconclusive: 19%
Cc1ccc(C(=O)/C=C/c2cccc(F)c2)o1	inconclusive: 11%
Cc1c(Cl)c([N+](=O)[O-])nn1CCCC(=O)Nc1cc(C(F)(F)F)ccc1Cl	inactive
O=C(Nc1cccc([N+](=O)[O-])c1)[C@H]1[C@H](C(=O)O)[C@H]2C=C[C@@H]1C2	inactive
O=C(Nc1ccc2c(c1)OCO2)C1CCN(S(=O)(=O)c2ccccc2)CC1	inconclusive: 12%
c1ccc(OCc2noc(CN3CCC(c4nc5ccccc5o4)CC3)n2)cc1	inconclusive: 16%
CN(CCCC1CCCO1)Cc1ccc2c(c1)OCCO2 (centres undefined)	inactive
CN(C)/C(=C1/c2cc([N+](=O)[O-])ccc2-c2c1cc([N+](=O)[O-])cc2[N+](=O)[O-])N1CCOCC1	active: 79%
Cc1noc(C)c1C(=O)N1CCOC(Cc2cccc3ccccc23)C1 (centres undefined)	inactive
CC(C)NC(=O)CSc1nc(-c2cccc(Cl)c2)nc2cc(=O)[nH]n12	active: 96%
CCS(=O)(=O)c1ccc(I)s1	inconclusive: 14%
CC1=CC[C@@H]2CN(C(=O)c3ccc(-c4ccn[nH]4)cc3)C[C@@H]2C1	inactive
Cc1ccoc1C(=O)NCC1CCN(Cc2ccc3nonc3c2)C1 (centres undefined)	inconclusive: 23%
CC(c1ccc2ccccc2c1)N(C)C(=O)CCc1cc(=O)[nH]o1 (centres undefined)	inconclusive: 15%
CSc1ccc(-c2nc(CSCC(=O)NC3CCCCCC3)c(C)o2)cc1	inconclusive: 10%

Compound	inhibition
COc1ccc(Nc2c(-c3ccco3)nc3cccc(C)n23)cc1	inconclusive: 13%
O=C(O)[C@H]1O[C@@H](Oc2cc(O)c3c(=O)cc(-c4ccc(O)cc4)oc3c2)[C@H](O)[C@@H](O)[C@@H]1O	inactive
COc1ccc(/C=C(\C#N)c2[nH]nc(N)c2C#N)cc1OC	inconclusive: 11%
COCCOC(=O)Nc1nc2ccc(OC)cc2s1	inactive
CC(C)NC(=O)N1CC[C@@H](CC(=O)O)[C@@H](CCN2CCN(c3ccc(F)cc3)CC2)C1	inconclusive: 17%
CN1[C@@H](c2ccc(Cl)cc2)[C@@H](C(=O)NC2CCC(O)CC2)C[C@@]1(C)C(=O)O (some centres undefined)	inconclusive: 10%
Cc1ccc2[nH]nc(C(=O)N3CCCC(CCc4ccccc4C)C3)c2c1 (centres undefined)	inconclusive: 15%
CCn1ccnc1Cn1ccnc1-c1ccc(O)c(CN(C)C)c1	inconclusive: 20%
Cc1ccc(C2C(=C(O)c3ccc(S(=O)(=O)N(C)C)cc3)C(=O)C(=O)N2CCN(C)C)cc1 (centres undefined)	inactive
C=CCS(=O)(=O)Nc1ccc(OC)cc1	inactive
O=C(Nc1nnc(SCC(=O)N2CCc3ccccc32)s1)c1ccc([N+](=O)[O-])cc1	inconclusive: 10%
CSc1ccccc1NC(=O)c1cc(C)on1	inconclusive: 16%
C=CCN(CC=C)S(=O)(=O)c1ccc(C(=O)Nc2nnc(-c3cccc(OC)c3)o2)cc1	inactive
COc1cc2c(cc1OC)C(C(=O)NCCCN1CCOCC1)C(c1cccs1)N(C)C2=O (centres undefined)	inactive
Cc1cccc(C(=O)Nc2sc3c(c2C(=O)N2CCOCC2)CCC3)c1	inconclusive: 18%
COc1ccc(CCNC(=O)C2(C)CCC(=O)N2Cc2ccc3c(c2)OCO3)cc1OC (centres undefined)	inconclusive: 15%
CCSc1nc(-c2ccccc2)ccc1C#N	inactive
CCNC(=O)c1c(NC(=O)c2ccccc2Cl)sc2c1CCCC2	inactive
COc1ccc(CNC(=O)C2CCN(Cc3ccc(Cl)cc3)CC2)cc1	inconclusive: 11%
